According to patent publication CN110964113A:
Results are given in words; binding and its absence hold for the method and conditions named. Some results given as binding are weak or reduced against the parent protein; the word gives no strength.

Target: Her2/neu抗原 (UniProt P04626)
Test: phage display panning on coated antigen and phage ELISA, as in Example 2

B1: 人源化抗Her2/neu单域抗体(HerG1M) (VHH)
VHH: QVKLEESGGGLIKPGGSLRLSCAASGFRIIDEKMAWVRQAPGKGLEWVSAISSSGGSTYYADSVKGRFTISRDNSKNAVYLQMNSLRAEDTAVYYCVAVKPKCNMQNCRASVNFWGQGTQVTVSS
In the case of B1, the binding is reported as “binds”.
